Laboratory results from the supplement of paper PMC10735217.
Structures can show the parent of a compound that is named as a salt. Some of the results follow. This data set is noisy: repeats of one test often differ as much as different tests do.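 The human kidney-derived cells carry a stably integrated construct of eight TEAD-binding elements driving luciferase, read by luminescence in a drug-repurposing library screen. A compound counts as a hit when its signal is more than five robust Z scores above the plate mean.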

Tested on: HEK293A TEAD-LUC reporter
Assay: TEAD-luciferase reporter activity (YAP activation), robust Z score vs plate; higher = stronger YAP/TEAD activation
Conditions: 24 h

Row | SMILES | TEAD-luciferase reporter activity (compound concentration: 200 nM) | TEAD-luciferase reporter activity (compound concentration: 2 uM) | TEAD-luciferase reporter activity (compound concentration: 10 uM)
1 | CC#CC(=O)N1CCC[C@H]1c1nc(-c2ccc(C(=O)Nc3ccccn3)cc2)c2c(N)nccn12 [Acalabrutinib] | inactive: -0.773 | inactive: -1.43 | inactive: 3.74
2 | CCOC(=O)C[C@@H](O)CC(O)/C=C/C1=C(c2ccc(F)cc2)c2ccccc2OC12CCCC2 (stereo partly specified) | inactive: -1.1 | inactive: -0.332 | inactive: -1.12
3 | COc1c(N2CCC/C(=C(\F)CN)C2)c(F)cc2c(=O)c(C(=O)O)cn(C3CC3)c12 | inactive: 0.813 | inactive: -0.822 | inactive: -0.931
4 | O=C(O)COc1cccc2c1CC[C@](O)(COC(=O)N(c1ccccc1)c1ccccc1)C2 | inactive: -0.0458 | inactive: 0.0406 | inactive: 0.372
5 | CCCn1c(=O)c2[nH]cnc2n(-c2ccc(Cl)cc2)c1=O [Arofylline] | inactive: -0.846 | inactive: -1.2 | inactive: 2.26
6 | CC/N=C(\NCC)NCCCCC(NC(=O)[C@H](Cc1ccc(O)cc1)NC(=O)[C@@H](CO)NC(=O)[C@@H](Cc1cccnc1)NC(=O)C(Cc1ccc(Cl)cc1)NC(=O)[C@H](Cc1ccc2ccccc2c1)NC(C)=O)C(=O)NC(CC(C)C)C(=O)NC(CCCCN/C(=N/CC)NCC)C(=O)N1CCC[C@@H]1C(=O)N[C@H](C)C(N)=O (stereo partly specified) [Ganirelix acetate] | inactive: -0.712 | – | inactive: -0.516
7 | CC/N=C(\NCC)NCCCCC(NC(=O)[C@H](Cc1ccc(O)cc1)NC(=O)[C@@H](CO)NC(=O)[C@@H](Cc1cccnc1)NC(=O)C(Cc1ccc(Cl)cc1)NC(=O)[C@H](Cc1ccc2ccccc2c1)NC(C)=O)C(=O)NC(CC(C)C)C(=O)NC(CCCCN/C(=N/CC)NCC)C(=O)N1CCC[C@@H]1C(=O)N[C@H](C)C(N)=O (stereo partly specified) [Ganirelix] | – | inactive: -1.24 | –
8 | CCC(CC)Oc1cc(C)nc(Oc2c(C)cc(C)cc2C)c1C | inactive: -0.87 | inactive: -1.65 | inactive: -1.04
9 | CC[C@H]1Cn2nc(-c3ccc(Cl)cc3Cl)c3nc(C)cc(c32)N1CC1CC1 | inactive: 2 | inactive: -0.897 | inactive: 0.958
10 | CCCN(c1ccncc1F)n1cc(C)c2ccccc21 | inactive: 1.1 | inactive: -1.52 | inactive: 0.898
11 | CC(C)C(C)(C)C [triptan, inhaled] | – | inactive: -1.27 | –
12 | CC(C)C(C)(C)C [triptan, inhaled, Vectura] | inactive: -1.41 | – | inactive: -1.28
13 | O=C(O)CCC(=O)Nc1ccc(S(=O)(=O)c2ccc(NC(=O)CCC(=O)O)cc2)cc1 | inactive: -0.738 | inactive: 2.09 | inactive: 4.42
14 | N=C(N)NC(=N)N1CCOCC1 [moroxydinechloride] | – | inactive: 0.511 | –
15 | N=C(N)NC(=N)N1CCOCC1 | inactive: -0.986 | inactive: -0.995 | inactive: -0.573
16 | CC1=N[C@H](C(=O)O)[C@@H](O)CN1 [Hydroxyectoine] | inactive: -0.956 | – | inactive: 2.97
17 | CCOc1ccc(NC(C)=O)cc1 | inactive: 0.173 | inactive: 0.333 | inactive: 0.45

Row | SMILES | TEAD-luciferase reporter activity (compound concentration: 200 nM) | TEAD-luciferase reporter activity (compound concentration: 2 uM) | TEAD-luciferase reporter activity (compound concentration: 10 uM)
18 | O=C1CN(S(=O)(=O)/C=C/c2ccc(Cl)s2)CCN1Cc1cc2cnccc2[nH]1 | inactive: -0.79 | inactive: -0.936 | inactive: -0.11
19 | Cc1cc(NC(=O)C(=O)c2cc(Cc3ccc(C#N)cc3)n3ccccc23)sn1 | inactive: 1.14 | inactive: 1.19 | active: 6.12
20 | NCCCC[C@H](NC(=O)[C@@H]1CCCN1C(=O)[C@@H]1CSSC[C@H](N)C(=O)N[C@@H](Cc2ccccc2)C(=O)N[C@@H](Cc2ccccc2)C(=O)N[C@@H](CCC(N)=O)C(=O)N[C@@H](CC(N)=O)C(=O)N1)C(=O)NCC(N)=O [Felypressin] | inactive: 0.417 | inactive: 1.01 | inactive: -0.364
21 | CCCCNc1ccc(C(=O)OCC[NH+](CC)CC)c(O)c1 | inactive: 2.75 | inactive: 0.215 | inactive: 3.56
22 | Oc1ccc(CCCCNC[C@@H](O)c2ccc(O)c(O)c2)cc1 | inactive: -2.42 | inactive: -0.0749 | inactive: -0.658
23 | Cc1cc(C)c(NC(=O)C[C@H](CC(=O)O)c2cccc3ccccc23)c(C(=O)N2CCC3(CCCC3)CC2)c1 [itriglumide] | inactive: -2 | inactive: 1.91 | inactive: -1.08
24 | CN(C)c1nc(O)c(-c2ccccc2)o1 | inactive: 0.694 | inactive: 0.486 | inactive: -0.817
25 | CCCN1CCCC12Cc1ccccc1CN(C(=O)CNC(C)=O)C2 (stereo unspecified) | inactive: 2.09 | – | inactive: 1.7
26 | CC(C)(C)c1cc(NC(=O)Nc2ccc(-c3cn4c(n3)sc3cc(OCCN5CCOCC5)ccc34)cc2)no1 [quizartinib dihydrochloride] | inactive: -0.308 | inactive: -1.14 | inactive: -0.145
27 | CO/N=C(\C(=O)N[C@@H]1C(=O)N2C(C(=O)[O-])=C(C[N+]3(C)CCCC3)CS[C@H]12)c1csc(N)n1 [Cefepime hydrochloride] | inactive: 0.242 | – | inactive: -1.39
28 | CO/N=C(\C(=O)N[C@@H]1C(=O)N2C(C(=O)[O-])=C(C[N+]3(C)CCCC3)CS[C@H]12)c1csc(N)n1 [cefepime] | – | inactive: -0.977 | –
29 | Cc1ncc[nH]1 [2-methylimidazole] | inactive: -0.607 | inactive: -0.0553 | inactive: -1.12
30 | CCOC(=O)C1=C(C)NC(C)=C(C(=O)OCCN2CCCCC2)C1c1cccc([N+](=O)[O-])c1 (stereo unspecified) | inactive: -2.67 | inactive: -0.504 | inactive: 2.11
31 | COC(=O)[C@H](Cc1cccc(C(=N)N)c1)[C@@H](C)NC(=O)c1ccc(-c2cccc(CN)c2)cc1 | inactive: -1.1 | inactive: 0.0404 | inactive: 0.664
32 | CCCCOP(=O)(CC(CCOc1ccccc1)CP(=O)(OCCCC)OCCCC)OCCCC | inactive: -1.29 | inactive: 0.838 | inactive: 1.96
33 | Cc1cccc2c1C=Cc1ccccc1C2=CCC[N+](C)(C)[O-] | inactive: 2.03 | inactive: 0.844 | active: 8.38

As a working copy, some entries already given:
Row | SMILES | TEAD-luciferase reporter activity (compound concentration: 200 nM) | TEAD-luciferase reporter activity (compound concentration: 2 uM) | TEAD-luciferase reporter activity (compound concentration: 10 uM)
13 | O=C(O)CCC(=O)Nc1ccc(S(=O)(=O)c2ccc(NC(=O)CCC(=O)O)cc2)cc1 | inactive: -0.738 | inactive: 2.09 | inactive: 4.42
14 | N=C(N)NC(=N)N1CCOCC1 [moroxydinechloride] | – | inactive: 0.511 | –
15 | N=C(N)NC(=N)N1CCOCC1 | inactive: -0.986 | inactive: -0.995 | inactive: -0.573
16 | CC1=N[C@H](C(=O)O)[C@@H](O)CN1 [Hydroxyectoine] | inactive: -0.956 | – | inactive: 2.97
17 | CCOc1ccc(NC(C)=O)cc1 | inactive: 0.173 | inactive: 0.333 | inactive: 0.45
18 | O=C1CN(S(=O)(=O)/C=C/c2ccc(Cl)s2)CCN1Cc1cc2cnccc2[nH]1 | inactive: -0.79 | inactive: -0.936 | inactive: -0.11
19 | Cc1cc(NC(=O)C(=O)c2cc(Cc3ccc(C#N)cc3)n3ccccc23)sn1 | inactive: 1.14 | inactive: 1.19 | active: 6.12
20 | NCCCC[C@H](NC(=O)[C@@H]1CCCN1C(=O)[C@@H]1CSSC[C@H](N)C(=O)N[C@@H](Cc2ccccc2)C(=O)N[C@@H](Cc2ccccc2)C(=O)N[C@@H](CCC(N)=O)C(=O)N[C@@H](CC(N)=O)C(=O)N1)C(=O)NCC(N)=O [Felypressin] | inactive: 0.417 | inactive: 1.01 | inactive: -0.364
21 | CCCCNc1ccc(C(=O)OCC[NH+](CC)CC)c(O)c1 | inactive: 2.75 | inactive: 0.215 | inactive: 3.56
